Test results taken from publication PMC8082149.
No constants are given. Whether binding was seen depends on the method and setting. In cells and extracts the contact can be indirect. Here binding means that the protein was enriched with, or labelled near, the bait; the list need not be complete.

By UniProt entry, the sequences of proteins in these tests, tags left out.
UniProt Q9Y572: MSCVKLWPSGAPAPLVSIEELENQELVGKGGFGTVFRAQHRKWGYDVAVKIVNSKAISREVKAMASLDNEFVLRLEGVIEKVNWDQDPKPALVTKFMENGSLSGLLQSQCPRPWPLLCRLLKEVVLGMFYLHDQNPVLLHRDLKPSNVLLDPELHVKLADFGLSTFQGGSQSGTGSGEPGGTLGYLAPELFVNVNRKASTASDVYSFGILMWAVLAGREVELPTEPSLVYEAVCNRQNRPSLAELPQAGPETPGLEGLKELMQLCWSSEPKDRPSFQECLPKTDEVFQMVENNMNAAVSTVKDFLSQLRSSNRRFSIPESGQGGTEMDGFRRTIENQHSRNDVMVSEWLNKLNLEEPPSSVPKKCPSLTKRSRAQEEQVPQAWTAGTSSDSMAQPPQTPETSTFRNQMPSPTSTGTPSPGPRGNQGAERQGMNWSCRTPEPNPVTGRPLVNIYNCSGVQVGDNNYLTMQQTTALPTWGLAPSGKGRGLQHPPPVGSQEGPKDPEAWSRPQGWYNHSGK
UniProt Q13158: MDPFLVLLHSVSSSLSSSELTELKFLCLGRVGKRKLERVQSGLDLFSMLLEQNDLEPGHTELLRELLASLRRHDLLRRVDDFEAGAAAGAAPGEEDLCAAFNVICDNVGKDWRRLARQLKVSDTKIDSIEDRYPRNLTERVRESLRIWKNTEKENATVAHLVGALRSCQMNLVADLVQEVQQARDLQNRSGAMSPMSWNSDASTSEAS
UniProt Q14790: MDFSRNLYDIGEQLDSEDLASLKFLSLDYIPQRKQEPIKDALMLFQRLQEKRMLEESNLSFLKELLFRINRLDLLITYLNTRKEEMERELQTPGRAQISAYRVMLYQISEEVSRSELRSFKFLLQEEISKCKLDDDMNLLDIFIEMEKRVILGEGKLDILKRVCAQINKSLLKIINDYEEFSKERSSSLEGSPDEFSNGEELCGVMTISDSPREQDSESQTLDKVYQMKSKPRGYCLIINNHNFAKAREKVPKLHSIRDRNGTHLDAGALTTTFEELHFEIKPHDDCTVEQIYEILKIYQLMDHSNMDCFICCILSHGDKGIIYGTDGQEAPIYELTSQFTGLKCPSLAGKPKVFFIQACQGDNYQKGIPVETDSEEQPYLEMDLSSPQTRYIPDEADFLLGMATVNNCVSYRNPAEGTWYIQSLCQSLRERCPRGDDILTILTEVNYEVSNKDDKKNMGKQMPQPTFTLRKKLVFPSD
UniProt Q13546: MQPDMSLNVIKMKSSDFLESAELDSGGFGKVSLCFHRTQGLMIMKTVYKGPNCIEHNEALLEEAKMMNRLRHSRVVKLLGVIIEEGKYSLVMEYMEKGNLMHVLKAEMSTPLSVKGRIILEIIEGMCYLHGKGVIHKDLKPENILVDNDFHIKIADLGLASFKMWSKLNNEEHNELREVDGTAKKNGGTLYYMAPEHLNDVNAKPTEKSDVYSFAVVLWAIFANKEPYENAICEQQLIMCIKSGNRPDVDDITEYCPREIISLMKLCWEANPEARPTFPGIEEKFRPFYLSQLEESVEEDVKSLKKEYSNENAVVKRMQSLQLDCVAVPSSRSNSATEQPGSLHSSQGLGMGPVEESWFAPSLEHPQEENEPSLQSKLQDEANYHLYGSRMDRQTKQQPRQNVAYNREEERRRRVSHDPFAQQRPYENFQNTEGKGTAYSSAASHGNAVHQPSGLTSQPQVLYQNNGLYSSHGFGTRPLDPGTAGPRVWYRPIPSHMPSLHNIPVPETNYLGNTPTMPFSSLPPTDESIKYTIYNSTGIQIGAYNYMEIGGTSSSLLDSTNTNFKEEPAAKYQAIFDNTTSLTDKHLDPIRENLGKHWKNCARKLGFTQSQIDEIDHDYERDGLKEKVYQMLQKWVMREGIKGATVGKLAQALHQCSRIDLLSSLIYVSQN
UniProt P08238: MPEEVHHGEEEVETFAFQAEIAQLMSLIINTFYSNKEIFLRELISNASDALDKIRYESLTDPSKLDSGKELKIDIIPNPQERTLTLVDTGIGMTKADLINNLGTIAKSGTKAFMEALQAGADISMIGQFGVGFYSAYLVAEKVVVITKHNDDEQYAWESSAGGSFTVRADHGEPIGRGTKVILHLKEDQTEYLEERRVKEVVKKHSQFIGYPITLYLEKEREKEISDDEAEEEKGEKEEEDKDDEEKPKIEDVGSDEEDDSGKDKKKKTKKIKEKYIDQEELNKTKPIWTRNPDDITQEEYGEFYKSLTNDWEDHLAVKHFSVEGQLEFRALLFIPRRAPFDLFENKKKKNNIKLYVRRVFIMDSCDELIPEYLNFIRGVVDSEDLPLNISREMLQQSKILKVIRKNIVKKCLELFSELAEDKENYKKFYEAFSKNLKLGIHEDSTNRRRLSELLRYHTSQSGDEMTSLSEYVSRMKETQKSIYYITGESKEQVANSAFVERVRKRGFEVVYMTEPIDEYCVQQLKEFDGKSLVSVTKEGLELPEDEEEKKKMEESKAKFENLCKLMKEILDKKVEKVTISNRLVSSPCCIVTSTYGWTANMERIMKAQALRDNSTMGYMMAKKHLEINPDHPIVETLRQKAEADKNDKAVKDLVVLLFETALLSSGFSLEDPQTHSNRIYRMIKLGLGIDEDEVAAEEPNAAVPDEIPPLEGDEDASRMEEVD
UniProt P19474: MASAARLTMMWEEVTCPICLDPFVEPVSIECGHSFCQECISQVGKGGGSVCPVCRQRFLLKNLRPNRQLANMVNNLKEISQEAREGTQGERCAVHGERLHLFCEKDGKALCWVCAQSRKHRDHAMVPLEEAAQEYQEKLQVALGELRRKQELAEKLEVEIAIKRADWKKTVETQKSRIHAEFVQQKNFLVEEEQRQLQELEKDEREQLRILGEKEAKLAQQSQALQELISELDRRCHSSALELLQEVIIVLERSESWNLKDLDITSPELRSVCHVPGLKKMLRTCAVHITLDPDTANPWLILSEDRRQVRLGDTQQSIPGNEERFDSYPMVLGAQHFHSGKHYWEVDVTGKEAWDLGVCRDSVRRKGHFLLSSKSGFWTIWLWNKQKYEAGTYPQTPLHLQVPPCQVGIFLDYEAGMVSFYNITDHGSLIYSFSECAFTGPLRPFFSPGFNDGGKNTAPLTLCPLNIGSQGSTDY

Biological target: receptor-interacting serine/threonine-protein kinase 3 (human (endogenous in HT29)) (UniProt Q9Y572)
Assay: affinity purification with mass spectrometry; pools of eight anti-RIPK3 immunoprecipitates from HT29 cells at 0 and 3 h of TzB treatment, trypsin digestion, LC-MS/MS (LTQ-OrbiTrap XL), spectral count label-free quantification, duplicate; IgG control

Row | Substance | binding
1 | Fas-associated with death domain protein (from UniProt Q13158 1-208) | binds
2 | caspase-8 (from UniProt Q14790 1-479) (enzyme) | binds
3 | receptor-interacting serine/threonine-protein kinase 1 (from UniProt Q13546 1-671) | binds

Second part, the substance after the results:

Row | binding | Substance
4 | binds | Heat shock protein 90-beta (from UniProt P08238 1-724)
5 | binds | tripartite motif containing 21 (from UniProt P19474 1-475)
